The source of these data is PubChem BioAssay AID1347423 (Functional Genomics Laboratory (NCATS/FGL), 2020).

Out of some 52,000 sequences screened, about 210 (0.4%) were called active.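 Rule for the calls: active = gene whose silencing raises cell survival under the drug, median off-target-corrected z-score across its silencing RNAs 2 or more; inactive = the rest.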 The list shows a part of the results.

The experiment can be described thus: Resistance to Poly (ADP-Ribose) Polymerase inhibitor: Gene Identification via Genome-wide siRNA Screen. Conditions: mouse BRCA2 R2336H ES cells, olaparib, CellTiter-Glo viability; stronger effect = higher value. In short, it runs like this: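 Genome-wide siRNA screen (3 siRNAs/gene, 20 nM) in mouse ES cells carrying hypomorphic BRCA2 R2336H; olaparib 500 nM added 48 h post-transfection, CellTiter-Glo viability 72 h later. Normalized to plate-median negative control; MAD z-scores, gene median, seed-adjusted.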
Take GCUGUGCUUACAUGUUUACTT against Rpn2: the z-score was inactive: -0.102.
CGGAUUCUUUUCUAAAGUGTT against Lox: the z-score was inactive: 1.13.
Consider CCUAAAAGGGUUUUGCUUCTT against H2afy3, for which the z-score is inactive: 0.76.
With GCGCAAAAAGGGAUCUAAGTT against Ogg1, the z-score is inactive: 0.186.
Consider “GCGUAAAGUAAAACAGCUUTT against 2610033H07Rik”, for which the z-score is inactive: -1.47.
For the sequence CGGAUGAUCGAUUUAAAGUTT against Gm67, the z-score is inactive: -1.49.
As to GGCUGUAAAUAAAUGCCUUTT against Cdc25c, the z-score was inactive: -2.15.
Regarding “GGACAAAUACCACAAGUUGTT against 4732471D19Rik”, the z-score is inactive: 0.0292.
Next, GCAUAGCAGAGCUGUGCUATT against Aprt: inactive: -0.403.
For CCGAGGGUACCUAAGGUUUTT against Ell3 the value was inactive: -1.14; for GCUAGGUUCCAGCAAUUGCTT against Zfp393, inactive: 0.743; for GGCCAUAAAACAUAAGCUATT against Tmem17, inactive: 1.1.
Take GCAUCACACCACAGAAAGUTT against Hmgcll1: the z-score is inactive: -2.48.
As to CCAAAUGAAAUUCAUUCUCTT against Ptger2, the z-score was inactive: 0.312.
With GGAGGAGAACAGCAAUCUUTT against Speer4d, the z-score was inactive: -2.4.
Take GGAAACGAAGAGGAAGAAUTT against Ddit3: the z-score was inactive: -0.803.
As for UUGGCUGCAUUAUCAUGAGTT against Olfr311, the z-score is inactive: 0.638.
On to GGGAACAUAAUGGAAAUGUTT against Il1f6, for which the z-score was inactive: -0.44.
Turning to GGGCGUACUCAACGUGAUUTT against BC013481, the z-score was inactive: -0.5.
For GCAUAAUGUUACCUAAGUCTT against Ifngr1 the value was inactive: -0.726; for CGUGGAAAAGCUAUGUGCGTT against Lif, inactive: 1.44; for GGUCCAGCUAUCCUUGACCTT against Hgfac, inactive: 0.231.
GGUUCUUAAACUCAAAUCUTT against Alox12b: the z-score is inactive: 1.29.
As to GGUAUUGUGGAAAUUCCCATT against BC042698, the z-score is inactive: 0.0792.
For the sequence “GGAAAAGCCUCAUUAGUUUTT against 5730420B22Rik”, the z-score was inactive: 0.68.
As for “GCAGCAGACAAUUAUGAAUTT against E130115E03Rik”, the z-score is inactive: -0.804.
Turning to GCUACAGUUCAGGGACUUGTT against Leng9, the z-score is inactive: -0.656.
GCCGUACAACAAUGAAUAUTT against Pcdh20: the z-score is inactive: -1.22.
Regarding GGGAGGAUUCAUGUUGUGUTT against Morc, the z-score is inactive: -2.26.
